No constants are given. Whether binding was seen depends on the method and setting. Binding seen in cells or lysates may run through a third protein. Here binding means that the protein was enriched with, or labelled near, the bait; the list need not be complete.
B1: PA2066 (protein, UniProt Q9I249 1-212)
chain: MSPTLQDARLLWDFLGQGRCHVPCELLVVCGSYDLRVCDHACELLERGLAERLLFTGNTGHWTRHLWVEPEAELFARHARARGVSDSLIVIEPRATNFAENIAFARELFPDLRRATFVTKPNSIRRVALTLPVRWPGLEGHVDAPDYAFPDGISNLVGVLGVIDEMVGDLDRIMRYPALGFQVACPIPAQVMDAWERLVARGFDRHLVNPPR
B2: PA4226 PchE (protein, UniProt G3XCV2 1-1438)
chain: MDLPPDSRTALRDWLTEQLADLLGEPLADVRALADDDDLLGCGLDSIRLMYLQERLRARGSTLDFAQLAQRPCLGAWLDLLACADRLSAPATVALPTAQDRDQPFELSSVQQAYWLGRGAGEVLGNVSCHAFLEFRTRDVDPQRLAAAAECVRQRHPMLRARFLDGRQQILPTPPLSCFDLQDWRTLQVDEAERDWQALRDWRAHECLAVERGQVFLLGLVRMPGGEDRLWLSLDLLAADVESLRLLLAELGVAYLAPERLAEPPALHFADYLAHRAAQRAEAAARARDYWLERLPRLPDAPALPLACAPESIRQPRTRRLAFQLSAGESRRLERLAAQHGVTLSSVFGCAFALVLARWSESAEFLLNVPLFDRHADDPRIGEVIADFTTLLLLECRMQAGVSFAEAVKSFQRNLHGAIDHAAFPALEVLREARRQGQPRSAPVVFASNLGEEGFVPAAFRDAFGDLHDMLSQTPQVWLDHQLYRVGDGILLAWDSVVGLFPEGLPETMFEAYVGLLQRLCDSAWGQPADLPLPWAQQARRALLNGQPACATARTLHRDFFLRAAEAPDADALLYRDQRVTRGELAERALRIAGGLREAGVRPGDAVEVSLPRGPQQVAAVFGVLAAGACYVPLDIDQPPARRRLIEEAAGVCLAITEEDDPQALPPRLDVQRLLRGPALAAPVPLAPQASAYVIYTSGSTGVPKGVEVSHAAAINTIDALLDLLRVNASDRLLAVSALDFDLSVFDLFGGLGAGASLVLPAQEQARDAAAWAEAIQRHAVSLWNSAPALLEMALSLPASQADYRSLRAVLLSGDWVALDLPGRLRPRCAEGCRLHVLGGATEAGIWSNLQSVDTVPPHWRSIPYGRPLPGQAYRVVDTHGRDVPDLVVGELWIGGASLARGYRNDPELSARRFVHDAQGRWYRTGDRGRYWGDGTLEFLGRVDQQVKVRGQRIELGEVEAALCAQAGVESACAAVLGGGVASLGAVLVPRLAPRAEGSMDLPAAQPFAGLAEAEAVLTREILGALLEAPLELDDGLRRRWLDWLADSAASALPSLDEALRRLGWQAAGLTAMGNALRGLLAGEQAPAALLLDPWLAPQAVAARLPDGREALARLLEALPTPAAGERLRVAVLDTRAGLWLDQGMASLLRPGLELTLFERSRVLLDAAATRLPERIVVQALDDGLLPAEHLGRYDRVISFAALHAYEASREGLALAAALLRPQGRLLLVDLLCESPLALLGAALLDDRPLRLAELPSLLADLAAAGLAPRCLWRSERIALVEALAPGLGLDAAALQAGLEQRLPQAMRPERLWCLPSLPLNGNGKVDRRRLAESMTRALGECRHEPSAEEPLEAHEQALAECWEAVLKRPVRRREASFFSLGGDSLLATRLLAGIRERFGVRLGMADFYRQPTLAGLARHLQVQTVEIEETQLEEGVL
B3: PA3182 PgI (protein, UniProt Q9X2N2 1-238)
chain: MAISELKLPAGVGLQVWGSAAEQARGLAAEVAGRLRSALAEQGQALLVVSGGRSPVAFLEALSEEPLDWSRITVSLADERWVPESHADSNAGLVRRHLLRGEAAKARFIGLYQPAASLEEAAELADHHLHELPLPIDVLVLGMGDDGHTASLFPNSPGLDLAMDPQGTRRCLPMWAPSVPHQRLTLPRAVLAAAKVQLLAIQGQSKLATLNAALAVEDERRMPVRAFLRAPLTIHWYP
B4: PA4920 NadE (protein, UniProt Q9HUP3 1-275)
chain: MQQIQRDIAQALQVQPPFQSEADVQAQIARRIAFIQQCLKDSGLKTLVLGISGGVDSLTAGLLAQRAVEQLREQTGDQAYRFIAVRLPYQVQQDEADAQASLATIRADEEQTVNIGPSVKALAEQLEALEGLEPAKSDFVIGNIKARIRMVAQYAIAGARGGLVIGTDHAAEAVMGFFTKFGDGACDLAPLSGLAKHQVRALARALGAPENLVEKIPTADLEDLRPGHPDEASHGVTYAEIDAFLHGQPLREEAARVIVDTYHKTQHKRELPKAP
B5: PA0771 Era (protein, UniProt Q9XCX8 1-305)
chain: MTDMHDDIPAGSRCGYVAIVGRPNVGKSTLLNHILGQKLAITSRKPQTTRHNMLGIKTEGEVQAVYVDTPGLHKSGEKALNRYMNRTASAALKDVDVVIFVVDRTRWTEEDQMVLERVQYVSCPVLIAVNKTDRIEEKADLLPHLEWLTQQLPKAEVVPISAQHGTNLDVLEKLVAERLPESEHFFPEDQITDRSSRFLAAELVREKIMRQLGAELPYQITVEIEEFKQEGRILHIHALILVEREGQKKIIIGDKGERIKSIGQNARKDMEVLFDSKVMLNLWVKVKGGWSDDERALRSLGYGDL

Experiments:
[1] = biological target: Hcp2-FLAG (P. aeruginosa); experiment: affinity purification with mass spectrometry; Hcp1/2/3-FLAG expressed from pME6032 in P. aeruginosa PAO1 ΔrsmA; cells cross-linked with 5 mM DTBP, sonicated; soluble fraction on anti-FLAG M2 magnetic beads in PBS at 4°C; on-bead digestion, LFQ against untagged Hcp and cognate VgrG-FLAG controls; three independent experiments
[2] = biological target: Hcp3-FLAG (P. aeruginosa); experiment: as above

Binder	binding [1]	binding [2]
B1	binds	–
B2	binds	–
B3	–	binds
B4	–	binds
B5	–	binds

Source: publication PMC8262886, “The Breadth and Molecular Basis of Hcp-Driven Type VI Secretion System Effector Delivery” (mBio, 2021)
